Our source for the binding values is paper doi:10.1101/2021.07.08.451629.

Chains of the proteins cited; added tags and fusions are not shown.
UniProt Q8C1W1: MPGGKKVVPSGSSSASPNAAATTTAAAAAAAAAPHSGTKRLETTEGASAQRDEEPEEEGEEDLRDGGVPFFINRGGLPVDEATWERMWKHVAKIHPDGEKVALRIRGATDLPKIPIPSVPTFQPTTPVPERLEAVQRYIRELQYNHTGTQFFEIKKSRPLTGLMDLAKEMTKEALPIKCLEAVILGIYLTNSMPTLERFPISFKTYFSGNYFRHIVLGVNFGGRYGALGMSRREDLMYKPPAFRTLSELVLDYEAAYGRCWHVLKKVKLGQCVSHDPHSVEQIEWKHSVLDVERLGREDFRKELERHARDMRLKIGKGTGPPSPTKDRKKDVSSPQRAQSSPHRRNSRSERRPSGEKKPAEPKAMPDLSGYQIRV

These are yes or no findings as the source states them, for the method shown. Binding seen in cells or lysates may run through a third protein. Some results given as binding are weak or reduced against the parent protein; the word gives no strength. Sequences can lack the tags named with a protein.

The target in the assay is T1, SVBP-myc (small vasohibin binding protein) (UniProt Q99LQ4).
T1 sequence: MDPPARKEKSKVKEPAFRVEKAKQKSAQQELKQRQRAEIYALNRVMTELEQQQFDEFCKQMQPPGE
Description: co-IP.

Consider “flag-vash1-GFP (mouse vasohibin 1) (from UniProt Q8C1W1 1-375) (enzyme)”, for which the binding entry is listed as “binds”.
